Measurements published in KR20240007815A.
Results are given in words; binding and its absence hold for the method and conditions named. Some entries that bind do so weakly or less than the wild type.

Target: 원숭이(Cynomolgus monkey) BDCA-2 (CLEC4C) (Cynomolgus monkey)
Experiment: flow cytometry on 293 cells expressing cyno BDCA-2, anti-human IgG-APC secondary

Binder | binding
201A 인간화 항체 201H (antibody, human IgG1, kappa, V domains shown) VH: EVQLVESGGGLVKPGGSLRLSCAASGFTFSSYTMSWVRQAPGKGLEWVATISSGGSYTYYPDSVKGRFTISRDNAKNSLYLQMNSLRAEDTAVYYCTRDRGDYDYDEGYYFDYWGQGTLVTVSS VL: DIVLTQSPASLAVSPGQRATITCRASASVDSYGNSFMHWYQQKPGQPPKLLIYLASNLESGVPARFSGSGSRTDFTLTINPVEANDTANYYCQQNNEDPRTFGGGTKVEIKR | binds
201A 키메라 항체 201C (antibody, human IgG1, kappa, V domains shown) VH: DVKLVESGGGLVKPGGSLNLSCAASGFTFSSYTMSWVRQNPEKRLEWVATISSGGSYTYYPDSVKGRFTISRDNAKNTLYLQMSSLKSEDTAMYYCTRDRGDYDYDEGYYFDYWGQGTTLTVSS VL: NIVLTQSPASLAVSLGQRATISCRASASVDSYGNSFMHWYQQKPGQPPKLLIYLASNLESGVPARFSGSGSRTDFTLTIDPVEADDAATYYCQQNNEDPRTFGGGTKLEIKR | binds
